These are yes or no findings as the source states them, for the method shown. Binding seen in cells or lysates may run through a third protein. A result given as binding can be weak or reduced; the word gives no strength. For some assays here: Sequences can lack the tags named with a protein. One block for each binder: values may come before it.
How the values were obtained:
[1] = biological target: LYK8-VYNE (M. truncatula); assay: split reporter; split-Venus BiFC: LYK8 fused to VYNE, the other receptors to VYCE, co-expressed in N. benthamiana leaves; confocal microscopy 36 h after infiltration
[2] = biological target: LYK8-FLAG (M. truncatula); assay: co-IP; LYK8-FLAG and HA-tagged receptors co-expressed in N. benthamiana leaves; leaves infiltrated with water or 1 μM CO4 or CO8 for 10 min before extraction; anti-FLAG M2 agarose, 4 h at 4 °C; blots with anti-HA and anti-FLAG

binding [1]: binds
B1: DMI2-VYCE (receptor, UniProt Q8L4H4 30-925)
chain: ATKGFESIACCADSNYTDPKTTLTYTTDHIWFSDKRSCRQIPEILFSHRSNKNVRKFEIYEGKRCYNLPTVKDQVYLIRGIFPFDSLNSSFYVSIGVTELGELRSSRLEDLEIEGVFRATKDYIDFCLLKEDVNPFISQIELRPLPEEYLHGFGTSVLKLISRNNLGDTNDDIRFPDDQNDRIWKRKETSTPTSALPLSFNVSNVDLKDSVTPPLQVLQTALTHPERLEFVHDGLETDDYEYSVFLHFLELNGTVRAGQRVFDIYLNNEIKKEKFDVLAGGSKNSYTALNISANGSLNITLVKASGSEFGPLLNAYEILQARSWIEETNQKDLEVIQKMREELLLHNQENEALESWSGDPCMIFPWKGITCDDSTGSSIITKLDLSSNNLKGAIPSIVTKMTNLQILNLSHNQFDMLFPSFPPSSLLISLDLSYNDLSGWLPESIISLPHLKSLYFGCNPSMSDEDTTKLNSSLINTDYGRCKAKKPKFGQVFVIGAITSGSLLITLAVGILFFCRYRHKSITLEGFGKTYPMATNIIFSLPSKDDFFIKSVSVKPFTLEYIEQATEQYKTLIGEGGFGSVYRGTLDDGQEVAVKVRSSTSTQGTREFDNELNLLSAIQHENLVPLLGYCNEYDQQILVYPFMSNGSLLDRLYGEASKRKILDWPTRLSIALGAARGLAYLHTFPGRSVIHRDVKSSNILLDQSMCAKVADFGFSKYAPQEGDSYVSLEVRGTAGYLDPEYYKTQQLSEKSDVFSFGVVLLEIVSGREPLNIKRPRIEWSLVEWAKPYIRASKVDEIVDPGIKGGYHAEALWRVVEVALQCLEPYSTYRPCMVDIVRELEDALIIENNASEYMKSIDSLGGSNRYSIVMDKRALPSTTSTAESTITTQTLSHPQPR

binding [2]: binds
B2: DMI2-HA (receptor, UniProt Q8L4H4 30-925)
chain: B1 chain

— article PMC11037463
